Measurements reported in PMC11525750.
These are yes or no findings as the source states them, for the method shown. Binding seen in cells or lysates may run through a third protein. Some binding calls cover weakened binding; strength is not graded here.

The chains behind the UniProt entries cited, without tags or fusion partners.
UniProt Q8NCD3: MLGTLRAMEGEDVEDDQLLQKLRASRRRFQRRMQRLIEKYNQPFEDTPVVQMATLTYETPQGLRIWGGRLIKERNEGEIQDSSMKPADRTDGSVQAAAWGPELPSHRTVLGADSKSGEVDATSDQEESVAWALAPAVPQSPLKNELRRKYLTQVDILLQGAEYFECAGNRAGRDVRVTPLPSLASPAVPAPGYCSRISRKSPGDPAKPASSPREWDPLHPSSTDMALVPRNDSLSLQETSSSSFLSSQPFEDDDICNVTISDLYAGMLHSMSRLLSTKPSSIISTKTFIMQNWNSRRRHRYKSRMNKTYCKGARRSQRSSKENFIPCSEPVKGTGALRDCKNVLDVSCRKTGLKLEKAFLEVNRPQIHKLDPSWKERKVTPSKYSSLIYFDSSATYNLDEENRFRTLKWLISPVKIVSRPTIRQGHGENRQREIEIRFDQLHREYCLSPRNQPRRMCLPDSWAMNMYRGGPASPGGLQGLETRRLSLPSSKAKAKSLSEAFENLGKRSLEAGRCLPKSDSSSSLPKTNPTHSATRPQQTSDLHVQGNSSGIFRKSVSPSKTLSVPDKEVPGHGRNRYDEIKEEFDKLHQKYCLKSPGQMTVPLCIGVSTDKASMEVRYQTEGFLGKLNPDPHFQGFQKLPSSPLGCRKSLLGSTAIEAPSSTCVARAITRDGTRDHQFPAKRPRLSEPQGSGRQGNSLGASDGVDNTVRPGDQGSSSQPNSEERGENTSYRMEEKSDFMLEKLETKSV

Target: T1, SBP-PRDX1 (UniProt Q06830)
T1 sequence: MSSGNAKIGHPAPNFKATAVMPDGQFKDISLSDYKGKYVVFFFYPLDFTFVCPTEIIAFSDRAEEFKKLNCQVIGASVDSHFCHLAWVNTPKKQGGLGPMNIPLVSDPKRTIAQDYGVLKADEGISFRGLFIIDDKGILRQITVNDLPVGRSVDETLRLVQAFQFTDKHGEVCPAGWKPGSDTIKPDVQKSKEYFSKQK
Assay: pull-down; SBP-tagged protein transfected into C4-2 or PC3 cells, H2O2 for 2 min, free thiols blocked with 20 mM MMTS, lysate on SA-Sepharose beads, washes with 1 % Triton X-100 and 1 M urea, elution with biotin, non-reducing immunoblotting (disulfide-linked conjugates)

## Holliday junction recognition protein (HJURP) (from UniProt Q8NCD3 1-748)
  binding: binds
